Measured values reported in PubChem BioAssay AID1850 (Southern Research Specialized Biocontainment Screening …, 2009).
“And” between values parts separate entries of the source, which are not always exact repeats. Identical values can stand only once. The list shows a part of the results, in another mix than the full data. Entries with a potency or affinity are not part of this list. The source made the active and inactive calls. How the calls were made is not given here.

Assay: PhoP regulon inhibitors, Salmonella typhi PhoP promoter GFP reporter, confirmatory (AID 1850);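 further: 0% = induced wells with vehicle and 100% = uninduced wells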
Conditions: fluorescence, 4 h, at 50 µM, hits give high values

Row | SMILES | inhibition
1 | CNCCCC12CCC(c3ccccc31)c1ccccc12 | inactive: -12% and inactive: 9.72%
